Results reported in article PMC4053239.
Results are given in words; binding and its absence hold for the method and conditions named. In cells and extracts the contact can be indirect. Some entries that bind do so weakly or less than the wild type.

Amino acid sequences for entries named in this document (tags omitted).
UniProt P24385: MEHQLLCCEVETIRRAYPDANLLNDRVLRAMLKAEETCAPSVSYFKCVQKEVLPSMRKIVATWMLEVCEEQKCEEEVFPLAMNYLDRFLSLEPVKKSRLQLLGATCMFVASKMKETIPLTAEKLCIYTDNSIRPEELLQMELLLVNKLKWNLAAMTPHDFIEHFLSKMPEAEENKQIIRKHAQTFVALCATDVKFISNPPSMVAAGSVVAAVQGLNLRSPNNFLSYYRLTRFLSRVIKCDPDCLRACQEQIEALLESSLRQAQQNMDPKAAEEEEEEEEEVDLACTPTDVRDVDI
UniProt P38936: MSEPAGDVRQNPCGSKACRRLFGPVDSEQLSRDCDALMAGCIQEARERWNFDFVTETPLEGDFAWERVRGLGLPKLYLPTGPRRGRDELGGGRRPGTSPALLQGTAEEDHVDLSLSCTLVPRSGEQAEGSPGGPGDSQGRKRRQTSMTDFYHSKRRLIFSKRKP

Experiments:
[1] = target: cyclin D1 (human (endogenous in MDA-MB-231, SCP2, SUM149, SUM159)) (UniProt P24385); assay: co-IP; endogenous cyclin D1 immunoprecipitated with anti-cyclin D1 antibody overnight at 4°C, protein G-Sepharose, washed four times with lysis buffer (10 mM Tris-HCl pH 7.5, 5 mM EDTA, 150 mM NaCl, 1% Triton X-100); Western blot; MDA and SCP2 cells treated with or without 5 ng/ml TGFβ for 6 or 24 hours
[2] = target: p21CIP1/WAF1 (human (endogenous in MDA-MB-231, SCP2, SUM149, SUM159)) (UniProt P38936); assay: co-IP; endogenous p21 immunoprecipitated with anti-p21 antibody overnight at 4°C, protein G-Sepharose, washed four times with lysis buffer (10 mM Tris-HCl pH 7.5, 5 mM EDTA, 150 mM NaCl, 1% Triton X-100); immunoblot with anti-cyclin D1 and anti-p21; MDA, SUM149 and SUM159 cells treated with or without …

| binding [1] | binding [2] | Substance |
| --- | --- | --- |
| binds | – | p21CIP1/WAF1 (from UniProt P38936 1-164) |
| – | binds | cyclin D1 (from UniProt P24385 1-295) |
